PubChem BioAssay AID1159578 – Peter MacCallum Cancer Centre, 2015

Assay: 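Genome-wide hunt for genes controlling movement of lymphatic endothelial cells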 (primary screen)
System: human lymphatic endothelial cells
Reagent: siRNA pool against human genes, 40 nM
Time to read-out: 48 h after transfection
Detection: 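High-content imaging of dye-stained cells in a scratch assay measures filled wound area and nuclei per well; duplicate means given as ratio to mock and robust z-score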
Direction: migration robust z-score: higher = faster migration into the scratch; nuclei per well: higher = more cells in the well
Rule for the call: 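Pools averaging fewer than 3300 nuclei are never called; remaining pools count as changed when migration robust z lies outside -2 to 2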
Meaning of the calls: active = migration changed; inactive = no migration change, or too few cells
In all, the deposit lists about 18,000 reagents; shown is a random part of them. Of all reagents, about 1,030 (5.7%) got an active call. 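Inactive calls also include pools with fewer than 3300 nuclei, whose migration was not assessed.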 Raw values are not corrected between plates. Not all columns of the deposit are shown.

CIDEC (cell death inducing DFFA like effector c) [SID255359775]
- migration robust z-score: -0.68
- nuclei per well, duplicate mean: 6530
- activity call: inactive

ITGA8 (integrin subunit alpha 8) [SID255353610]
- migration robust z-score: -0.8
- nuclei per well, duplicate mean: 7052
- activity call: inactive

DNTTIP1 (deoxynucleotidyltransferase terminal interacting protein 1) [SID255362345]
- migration robust z-score: -0.75
- nuclei per well, duplicate mean: 6024
- activity call: inactive

AIFM2 (AIF family member 2, ferroptosis suppressor) [SID255361547]
- migration robust z-score: -1.09
- nuclei per well, duplicate mean: 5071
- activity call: inactive

IL17C (interleukin 17C) [SID255356969]
- migration robust z-score: -1.08
- nuclei per well, duplicate mean: 4878
- activity call: inactive

OXT (oxytocin/neurophysin I prepropeptide) [SID255351381]
- migration robust z-score: 0.08
- nuclei per well, duplicate mean: 5701
- activity call: inactive

SPSB3 (splA/ryanodine receptor domain and SOCS box containing 3) [SID255361869]
- migration robust z-score: 0.7
- nuclei per well, duplicate mean: 5214
- activity call: inactive

ZG16 (zymogen granule protein 16) [SID255362595]
- migration robust z-score: -0.36
- nuclei per well, duplicate mean: 6221
- activity call: inactive

SLC26A2 [SID255349386]
- migration robust z-score: -0.05
- nuclei per well, duplicate mean: 6469
- activity call: inactive

CAPN15 (calpain 15) [SID255352566]
- migration robust z-score: 0.24
- nuclei per well, duplicate mean: 5360
- activity call: inactive

PAPOLG (poly(A) polymerase gamma) [SID255360042]
- migration robust z-score: -1.01
- nuclei per well, duplicate mean: 3728
- activity call: inactive

TOMM22 (translocase of outer mitochondrial membrane 22) [SID255359218]
- migration robust z-score: -0.94
- nuclei per well, duplicate mean: 5799
- activity call: inactive

GADD45GIP1 (GADD45G interacting protein 1) [SID255361830]
- migration robust z-score: -0.12
- nuclei per well, duplicate mean: 6074
- activity call: inactive

ETS2-AS1 (ETS2 antisense RNA 1) [SID255365763]
- migration robust z-score: -0.74
- nuclei per well, duplicate mean: 4857
- activity call: inactive

NPHP1 (nephrocystin 1) [SID255351284]
- migration robust z-score: 0.24
- nuclei per well, duplicate mean: 5719
- activity call: inactive

CENPW (centromere protein W) [SID255365427]
- migration robust z-score: 0.98
- nuclei per well, duplicate mean: 5036
- activity call: inactive

MUS81 (MUS81 structure-specific endonuclease subunit) [SID255360696]
- migration robust z-score: 0.92
- nuclei per well, duplicate mean: 6396
- activity call: inactive

GAS6 (growth arrest specific 6) [SID255349833]
- migration robust z-score: 1.06
- nuclei per well, duplicate mean: 6016
- activity call: inactive

COL6A5 (collagen type VI alpha 5 chain) [SID255364514]
- migration robust z-score: 0.62
- nuclei per well, duplicate mean: 5795
- activity call: inactive

ZBED8 (zinc finger BED-type containing 8) [SID255359772]
- migration robust z-score: 0.38
- nuclei per well, duplicate mean: 5318
- activity call: inactive

PVR (PVR cell adhesion molecule) [SID255351978]
- migration robust z-score: 0.91
- nuclei per well, duplicate mean: 6225
- activity call: inactive

Sorted by “nuclei per well, duplicate mean” (descending): some entries from above.
PVR (PVR cell adhesion molecule) [SID255351978]
- migration robust z-score: 0.91
- nuclei per well, duplicate mean: 6225
- activity call: inactive

COL6A5 (collagen type VI alpha 5 chain) [SID255364514]
- migration robust z-score: 0.62
- nuclei per well, duplicate mean: 5795
- activity call: inactive

ZBED8 (zinc finger BED-type containing 8) [SID255359772]
- migration robust z-score: 0.38
- nuclei per well, duplicate mean: 5318
- activity call: inactive
